In the supplement of paper PMC8728848:
Some of the results follow.

Tests used:
Experiment in all cases: glycan array binding signal (z-score within array); higher = stronger binding
Conditions in all cases: glycan notation: IUPAC condensed, linker removed
[1] = biological target: Gal(b1-4)GlcNAc(b1-3)Gal(b1-4)GlcNAc(b1-2)[Gal(b1-4)GlcNAc(b1-3)Gal(b1-4)GlcNAc(b1-6)]Man(a1-6)[Gal(b1-4)GlcNAc(b1-3)Gal(b1-4)GlcNAc(b1-2)Man(a1-3)]Man(b1-4)GlcNAc(b1-4)GlcNAc
Method in brief: (§1)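 Glycan array data were curated from 3228 arrays in the Consortium for Functional Glycomics database and kept only where the protein sequence was available. Glycan names were converted to IUPAC-condensed notation, and columns mapping to the same glycan were averaged. The binding signal is a within-array Z-score, averaged across arrays of the same protein sequence at different concentrations or buffers and across linkers. Negative Z-scores can be read as non-binding.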

[2] = biological target: Gal(b1-4)GlcNAc(b1-3)Gal(b1-4)GlcNAc(b1-2)[Gal(b1-4)GlcNAc(b1-3)Gal(b1-4)GlcNAc(b1-6)]Man(a1-6)[Gal(b1-4)GlcNAc(b1-3)Gal(b1-4)GlcNAc(b1-2)Man(a1-3)]Man(b1-4)GlcNAc(b1-4)[Fuc(a1-6)]GlcNAc
Method in brief: as §1

[3] = biological target: Gal(b1-4)GlcNAc(b1-3)Gal(b1-4)GlcNAc(b1-3)Gal(b1-4)GlcNAc
Method in brief: as §1

[4] = biological target: Gal(b1-4)GlcNAc(b1-3)Gal(b1-4)GlcNAc(b1-3)Gal(b1-4)GlcNAc(b1-2)Man(a1-3)[Gal(b1-4)GlcNAc(b1-3)Gal(b1-4)GlcNAc(b1-3)Gal(b1-4)GlcNAc(b1-2)Man(a1-6)]Man(b1-4)GlcNAc(b1-4)GlcNAc
Method in brief: as §1

[5] = biological target: Gal(b1-4)GlcNAc(b1-3)Gal(b1-4)GlcNAc(b1-3)Gal(b1-4)GlcNAc(b1-2)Man(a1-3)[Gal(b1-4)GlcNAc(b1-3)Gal(b1-4)GlcNAc(b1-3)Gal(b1-4)GlcNAc(b1-2)Man(a1-6)]Man(b1-4)GlcNAc(b1-4)[Fuc(a1-6)]GlcNAc
Method in brief: as §1

[6] = biological target: Gal(b1-4)GlcNAc(b1-3)Gal(b1-4)GlcNAc(b1-3)Gal(b1-4)GlcNAc(b1-2)[Gal(b1-4)GlcNAc(b1-3)Gal(b1-4)GlcNAc(b1-3)Gal(b1-4)GlcNAc(b1-6)]Man(a1-6)[Gal(b1-4)GlcNAc(b1-3)Gal(b1-4)GlcNAc(b1-3)Gal(b1-4)GlcNAc(b1-2)Man(a1-3)]Man(b1-4)GlcNAc(b1-4)[Fuc(a1-6)]GlcNAc
Method in brief: as §1

[7] = biological target: Gal(b1-4)GlcNAc(b1-3)Gal(b1-4)GlcNAc(b1-3)Gal(b1-4)GlcNAc(b1-3)Gal(b1-4)GlcNAc(b1-2)Man(a1-3)[Gal(b1-4)GlcNAc(b1-3)Gal(b1-4)GlcNAc(b1-3)Gal(b1-4)GlcNAc(b1-3)Gal(b1-4)GlcNAc(b1-2)Man(a1-6)]Man(b1-4)GlcNAc(b1-4)GlcNAc
Method in brief: as §1

[8] = biological target: Gal(b1-4)GlcNAc(b1-3)Gal(b1-4)GlcNAc(b1-3)Gal(b1-4)GlcNAc(b1-3)Gal(b1-4)GlcNAc(b1-2)Man(a1-3)[Gal(b1-4)GlcNAc(b1-3)Gal(b1-4)GlcNAc(b1-3)Gal(b1-4)GlcNAc(b1-3)Gal(b1-4)GlcNAc(b1-2)Man(a1-6)]Man(b1-4)GlcNAc(b1-4)[Fuc(a1-6)]GlcNAc
Method in brief: as §1

[9] = biological target: Gal(b1-4)GlcNAc(b1-3)Gal(b1-4)GlcNAc(b1-3)Gal(b1-4)GlcNAc(b1-3)Gal(b1-4)GlcNAc(b1-2)[Gal(b1-4)GlcNAc(b1-3)Gal(b1-4)GlcNAc(b1-3)Gal(b1-4)GlcNAc(b1-3)Gal(b1-4)GlcNAc(b1-6)]Man(a1-6)[Gal(b1-4)GlcNAc(b1-3)Gal(b1-4)GlcNAc(b1-3)Gal(b1-4)GlcNAc(b1-3)Gal(b1-4)GlcNAc(b1-2)Man(a1-3)]Man(b1-4)GlcNAc(b1-4)[Fuc(a1-6)]GlcNAc
Method in brief: as §1

[10] = biological target: Gal(b1-4)GlcNAc(b1-3)Gal(b1-4)GlcNAc(b1-3)Gal(b1-4)GlcNAc(b1-3)Gal(b1-4)GlcNAc(b1-3)Gal(b1-4)GlcNAc(b1-2)Man(a1-3)[Gal(b1-4)GlcNAc(b1-3)Gal(b1-4)GlcNAc(b1-3)Gal(b1-4)GlcNAc(b1-3)Gal(b1-4)GlcNAc(b1-3)Gal(b1-4)GlcNAc(b1-2)Man(a1-6)]Man(b1-4)GlcNAc(b1-4)GlcNAc
Method in brief: as §1

[11] = biological target: Gal(b1-4)GlcNAc(b1-3)Gal(b1-4)GlcNAc(b1-3)Gal(b1-4)GlcNAc(b1-3)Gal(b1-4)GlcNAc(b1-3)Gal(b1-4)GlcNAc(b1-2)Man(a1-3)[Gal(b1-4)GlcNAc(b1-3)Gal(b1-4)GlcNAc(b1-3)Gal(b1-4)GlcNAc(b1-3)Gal(b1-4)GlcNAc(b1-3)Gal(b1-4)GlcNAc(b1-2)Man(a1-6)]Man(b1-4)GlcNAc(b1-4)[Fuc(a1-6)]GlcNAc
Method in brief: as §1

[12] = biological target: Gal(b1-4)GlcNAc(b1-3)Gal(b1-4)GlcNAc(b1-3)Gal(b1-4)GlcNAc(b1-3)Gal(b1-4)GlcNAc(b1-3)Gal(b1-4)GlcNAc(b1-2)[Gal(b1-4)GlcNAc(b1-3)Gal(b1-4)GlcNAc(b1-3)Gal(b1-4)GlcNAc(b1-3)Gal(b1-4)GlcNAc(b1-3)Gal(b1-4)GlcNAc(b1-6)]Man(a1-6)[Gal(b1-4)GlcNAc(b1-3)Gal(b1-4)GlcNAc(b1-3)Gal(b1-4)GlcNAc(b1-3)Gal(b1-4)GlcNAc(b1-3)Gal(b1-4)GlcNAc(b1-2)Man(a1-3)]Man(b1-4)GlcNAc(b1-4)[Fuc(a1-6)]GlcNAc
Method in brief: as §1

[13] = biological target: Gal(b1-4)GlcNAc(b1-3)Gal(b1-4)GlcNAc(b1-3)Gal(b1-4)GlcNAc(b1-3)Gal(b1-4)GlcNAc(b1-3)Gal(b1-4)GlcNAc(b1-3)Gal(b1-4)GlcNAc(b1-2)Man(a1-3)[Gal(b1-4)GlcNAc(b1-3)Gal(b1-4)GlcNAc(b1-3)Gal(b1-4)GlcNAc(b1-3)Gal(b1-4)GlcNAc(b1-3)Gal(b1-4)GlcNAc(b1-3)Gal(b1-4)GlcNAc(b1-2)Man(a1-6)]Man(b1-4)GlcNAc(b1-4)GlcNAc
Method in brief: as §1

[14] = biological target: Gal(b1-4)GlcNAc(b1-3)Gal(b1-4)GlcNAc(b1-3)GalNAc
Method in brief: as §1

[15] = biological target: Gal(b1-4)GlcNAc(b1-3)Gal(b1-4)GlcNAc(b1-3)[Gal(b1-4)GlcNAc(b1-3)Gal(b1-4)GlcNAc(b1-6)]GalNAc
Method in brief: as §1

[16] = biological target: Gal(b1-4)GlcNAc(b1-3)Gal(b1-4)GlcNAc(b1-6)[Gal(b1-3)]GalNAc
Method in brief: as §1

[17] = biological target: Gal(b1-4)GlcNAc(b1-3)Gal(b1-4)[Fuc(a1-3)]GlcNAc(b1-3)Gal(b1-4)[Fuc(a1-3)]GlcNAc
Method in brief: as §1

[18] = biological target: Gal(b1-4)GlcNAc(b1-3)GalNAc
Method in brief: as §1

[19] = biological target: Gal(b1-4)GlcNAc(b1-3)[Fuc(a1-3)GlcNAc(b1-6)]Gal(b1-4)Glc
Method in brief: as §1

[20] = biological target: Gal(b1-4)GlcNAc(b1-3)[Gal(b1-4)GlcNAc(b1-6)]Gal(b1-4)GlcNAc
Method in brief: as §1

[21] = biological target: Gal(b1-4)GlcNAc(b1-3)[GlcNAc(b1-6)]Gal(b1-4)GlcNAc
Method in brief: as §1

[22] = biological target: Gal(b1-4)GlcNAc(b1-6)Gal(b1-4)GlcNAc
Method in brief: as §1

[23] = biological target: Gal(b1-4)GlcNAc(b1-6)GalNAc
Method in brief: as §1

[24] = biological target: Gal(b1-4)GlcNAc(b1-6)[Gal(b1-3)]GalNAc
Method in brief: as §1

[25] = biological target: Gal(b1-4)GlcNAc(b1-6)[Gal(b1-4)GlcNAc(b1-3)]GalNAc
Method in brief: as §1

Gal(b1-4)GlcNAc6P = biological target: Gal(b1-4)GlcNAc6P
Method in brief: as §1

Gal(b1-6)Gal = biological target: Gal(b1-6)Gal
Method in brief: as §1

Gal3S(b1-3)GalNAc = biological target: Gal3S(b1-3)GalNAc
Method in brief: as §1

Gal3S(b1-3)GlcNAc = biological target: Gal3S(b1-3)GlcNAc
Method in brief: as §1

[26] = biological target: Gal3S(b1-3)[Fuc(a1-4)]GlcNAc
Method in brief: as §1

Gal3S(b1-4)Glc = biological target: Gal3S(b1-4)Glc
Method in brief: as §1

Gal3S(b1-4)Glc6S = biological target: Gal3S(b1-4)Glc6S
Method in brief: as §1

Gal3S(b1-4)GlcNAc = biological target: Gal3S(b1-4)GlcNAc
Method in brief: as §1

[27] = biological target: Gal3S(b1-4)[Fuc(a1-3)]Glc6S
Method in brief: as §1

[28] = biological target: Gal3S(b1-4)[Fuc(a1-3)]GlcNAc
Method in brief: as §1

[29] = biological target: Gal3S(b1-4)[Fuc(a1-3)]GlcNAc6S
Method in brief: as §1

Gal3S4S(b1-4)GlcNAc = biological target: Gal3S4S(b1-4)GlcNAc
Method in brief: as §1

B1: Clec18Av1 (Homo sapiens), A5D8T8 (protein)
chain: MLHPETSPGRGHLLAVLLALLGTAWAEVWPPQLQEQAPMAGALNRKESFLLLSLHNRLRSWVQPPAADMRRLDWSDSLAQLAQARAALCGTPTPSLASGLWRTLQVGWNMQLLPAGLVSFVEVVSLWFAEGQRYSHAAGECARNATCTHYTQLVWATSSQLGCGRHLCSAGQAAIEAFVCAYSPRGNWEVNGKTIVPYKKGAWCSLCTASVSGCFKAWDHAGGLCEVPRNPCRMSCQNHGRLNISTCHCHCPPGYTGRYCQVRCSLQCVHGRFREEECSCVCDIGYGGAQCATKVHFPFHTCDLRIDGDCFMVSSEADTYYRARMKCQRKGGVLAQIKSQKVQDILAFYLGRLETTNEVIDSDFETRNFWIGLTYKTAKDSFRWATGEHQAFTSFAFGQPDNHGFGNCVELQASAAFNWNDQRCKTRNRYICQFAQEHISRWGPGS
glycan array binding signal (z-score) [1]: -0.486 | glycan array binding signal (z-score) [2]: 0.779 | glycan array binding signal (z-score) [3]: 0.892 | glycan array binding signal (z-score) [4]: 0.526 | glycan array binding signal (z-score) [5]: 1.59 | glycan array binding signal (z-score) [6]: 1.09 | glycan array binding signal (z-score) [7]: 1.2 | glycan array binding signal (z-score) [8]: -0.043 | glycan array binding signal (z-score) [9]: 0.227 | glycan array binding signal (z-score) [10]: 0.95 | glycan array binding signal (z-score) [11]: 2.4 | glycan array binding signal (z-score) [12]: 2.85 | glycan array binding signal (z-score) [13]: -0.16 | glycan array binding signal (z-score) [14]: -0.32 | glycan array binding signal (z-score) [15]: 0.461 | glycan array binding signal (z-score) [16]: 0.142 | glycan array binding signal (z-score) [17]: -0.709 | glycan array binding signal (z-score) [18]: -0.386 | glycan array binding signal (z-score) [19]: -0.175 | glycan array binding signal (z-score) [20]: 1.08 | glycan array binding signal (z-score) [21]: 1.16 | glycan array binding signal (z-score) [22]: 0.508 | glycan array binding signal (z-score) [23]: -0.134 | glycan array binding signal (z-score) [24]: 0.25 | glycan array binding signal (z-score) [25]: 0.15 | glycan array binding signal (z-score) (Gal(b1-4)GlcNAc6P): 0.695 | glycan array binding signal (z-score) (Gal(b1-6)Gal): 0.799 | glycan array binding signal (z-score) (Gal3S(b1-3)GalNAc): -0.82 | glycan array binding signal (z-score) (Gal3S(b1-3)GlcNAc): -0.789 | glycan array binding signal (z-score) [26]: 0.307 | glycan array binding signal (z-score) (Gal3S(b1-4)Glc): -0.684 | glycan array binding signal (z-score) (Gal3S(b1-4)Glc6S): -0.717 | glycan array binding signal (z-score) (Gal3S(b1-4)GlcNAc): -0.405 | glycan array binding signal (z-score) [27]: 0.003 | glycan array binding signal (z-score) [28]: -0.715 | glycan array binding signal (z-score) [29]: -0.271 | glycan array binding signal (z-score) (Gal3S4S(b1-4)GlcNAc): -0.821
